Experimental data from the supplement of paper PMC10849652.
The other results are listed elsewhere or left out.

Amino acid sequences for entries named in this document (tags omitted). A change or cut given only in a name is not applied to a line headed by its entry.
UniProt P02750: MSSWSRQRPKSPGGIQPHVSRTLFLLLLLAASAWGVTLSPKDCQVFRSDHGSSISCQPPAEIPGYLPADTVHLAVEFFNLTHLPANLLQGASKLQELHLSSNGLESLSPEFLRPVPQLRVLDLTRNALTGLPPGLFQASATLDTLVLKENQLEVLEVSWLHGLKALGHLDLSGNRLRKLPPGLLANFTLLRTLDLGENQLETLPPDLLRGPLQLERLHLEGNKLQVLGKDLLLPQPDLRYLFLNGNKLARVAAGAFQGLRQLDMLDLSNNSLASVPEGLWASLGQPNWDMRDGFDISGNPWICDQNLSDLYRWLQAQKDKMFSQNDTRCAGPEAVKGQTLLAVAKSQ
UniProt P01130: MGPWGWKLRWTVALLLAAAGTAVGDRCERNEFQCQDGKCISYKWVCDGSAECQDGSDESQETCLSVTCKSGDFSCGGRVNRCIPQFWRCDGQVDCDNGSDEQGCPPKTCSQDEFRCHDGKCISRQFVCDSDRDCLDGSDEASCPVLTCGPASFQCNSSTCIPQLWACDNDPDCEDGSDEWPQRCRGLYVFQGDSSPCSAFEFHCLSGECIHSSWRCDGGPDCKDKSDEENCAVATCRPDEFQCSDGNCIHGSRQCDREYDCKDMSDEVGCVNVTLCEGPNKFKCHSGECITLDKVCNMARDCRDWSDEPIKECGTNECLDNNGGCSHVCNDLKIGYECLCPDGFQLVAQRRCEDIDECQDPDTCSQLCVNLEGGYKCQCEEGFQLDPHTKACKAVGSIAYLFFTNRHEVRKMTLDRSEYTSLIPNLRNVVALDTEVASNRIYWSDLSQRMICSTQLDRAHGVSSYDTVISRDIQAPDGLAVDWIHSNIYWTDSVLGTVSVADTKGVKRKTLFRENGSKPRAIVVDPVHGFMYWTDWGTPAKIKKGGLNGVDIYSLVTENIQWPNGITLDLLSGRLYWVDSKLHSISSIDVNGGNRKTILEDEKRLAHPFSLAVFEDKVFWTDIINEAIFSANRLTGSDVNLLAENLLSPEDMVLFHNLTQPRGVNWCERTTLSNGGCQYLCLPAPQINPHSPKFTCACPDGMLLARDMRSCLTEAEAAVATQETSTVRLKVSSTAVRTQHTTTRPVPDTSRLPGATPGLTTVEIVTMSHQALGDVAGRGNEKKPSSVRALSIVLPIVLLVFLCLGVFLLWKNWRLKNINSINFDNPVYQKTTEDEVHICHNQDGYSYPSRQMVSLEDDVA
UniProt Q92604: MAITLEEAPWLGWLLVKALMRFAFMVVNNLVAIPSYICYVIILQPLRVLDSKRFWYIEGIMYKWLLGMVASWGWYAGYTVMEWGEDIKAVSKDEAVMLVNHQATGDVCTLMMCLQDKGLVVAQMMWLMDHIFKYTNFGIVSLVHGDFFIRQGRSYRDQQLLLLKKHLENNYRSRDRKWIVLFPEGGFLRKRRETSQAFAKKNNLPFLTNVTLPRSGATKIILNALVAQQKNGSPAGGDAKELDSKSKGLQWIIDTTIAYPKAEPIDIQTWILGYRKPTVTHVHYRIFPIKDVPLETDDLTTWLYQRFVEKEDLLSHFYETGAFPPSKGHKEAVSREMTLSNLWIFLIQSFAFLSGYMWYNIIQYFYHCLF
UniProt P50851: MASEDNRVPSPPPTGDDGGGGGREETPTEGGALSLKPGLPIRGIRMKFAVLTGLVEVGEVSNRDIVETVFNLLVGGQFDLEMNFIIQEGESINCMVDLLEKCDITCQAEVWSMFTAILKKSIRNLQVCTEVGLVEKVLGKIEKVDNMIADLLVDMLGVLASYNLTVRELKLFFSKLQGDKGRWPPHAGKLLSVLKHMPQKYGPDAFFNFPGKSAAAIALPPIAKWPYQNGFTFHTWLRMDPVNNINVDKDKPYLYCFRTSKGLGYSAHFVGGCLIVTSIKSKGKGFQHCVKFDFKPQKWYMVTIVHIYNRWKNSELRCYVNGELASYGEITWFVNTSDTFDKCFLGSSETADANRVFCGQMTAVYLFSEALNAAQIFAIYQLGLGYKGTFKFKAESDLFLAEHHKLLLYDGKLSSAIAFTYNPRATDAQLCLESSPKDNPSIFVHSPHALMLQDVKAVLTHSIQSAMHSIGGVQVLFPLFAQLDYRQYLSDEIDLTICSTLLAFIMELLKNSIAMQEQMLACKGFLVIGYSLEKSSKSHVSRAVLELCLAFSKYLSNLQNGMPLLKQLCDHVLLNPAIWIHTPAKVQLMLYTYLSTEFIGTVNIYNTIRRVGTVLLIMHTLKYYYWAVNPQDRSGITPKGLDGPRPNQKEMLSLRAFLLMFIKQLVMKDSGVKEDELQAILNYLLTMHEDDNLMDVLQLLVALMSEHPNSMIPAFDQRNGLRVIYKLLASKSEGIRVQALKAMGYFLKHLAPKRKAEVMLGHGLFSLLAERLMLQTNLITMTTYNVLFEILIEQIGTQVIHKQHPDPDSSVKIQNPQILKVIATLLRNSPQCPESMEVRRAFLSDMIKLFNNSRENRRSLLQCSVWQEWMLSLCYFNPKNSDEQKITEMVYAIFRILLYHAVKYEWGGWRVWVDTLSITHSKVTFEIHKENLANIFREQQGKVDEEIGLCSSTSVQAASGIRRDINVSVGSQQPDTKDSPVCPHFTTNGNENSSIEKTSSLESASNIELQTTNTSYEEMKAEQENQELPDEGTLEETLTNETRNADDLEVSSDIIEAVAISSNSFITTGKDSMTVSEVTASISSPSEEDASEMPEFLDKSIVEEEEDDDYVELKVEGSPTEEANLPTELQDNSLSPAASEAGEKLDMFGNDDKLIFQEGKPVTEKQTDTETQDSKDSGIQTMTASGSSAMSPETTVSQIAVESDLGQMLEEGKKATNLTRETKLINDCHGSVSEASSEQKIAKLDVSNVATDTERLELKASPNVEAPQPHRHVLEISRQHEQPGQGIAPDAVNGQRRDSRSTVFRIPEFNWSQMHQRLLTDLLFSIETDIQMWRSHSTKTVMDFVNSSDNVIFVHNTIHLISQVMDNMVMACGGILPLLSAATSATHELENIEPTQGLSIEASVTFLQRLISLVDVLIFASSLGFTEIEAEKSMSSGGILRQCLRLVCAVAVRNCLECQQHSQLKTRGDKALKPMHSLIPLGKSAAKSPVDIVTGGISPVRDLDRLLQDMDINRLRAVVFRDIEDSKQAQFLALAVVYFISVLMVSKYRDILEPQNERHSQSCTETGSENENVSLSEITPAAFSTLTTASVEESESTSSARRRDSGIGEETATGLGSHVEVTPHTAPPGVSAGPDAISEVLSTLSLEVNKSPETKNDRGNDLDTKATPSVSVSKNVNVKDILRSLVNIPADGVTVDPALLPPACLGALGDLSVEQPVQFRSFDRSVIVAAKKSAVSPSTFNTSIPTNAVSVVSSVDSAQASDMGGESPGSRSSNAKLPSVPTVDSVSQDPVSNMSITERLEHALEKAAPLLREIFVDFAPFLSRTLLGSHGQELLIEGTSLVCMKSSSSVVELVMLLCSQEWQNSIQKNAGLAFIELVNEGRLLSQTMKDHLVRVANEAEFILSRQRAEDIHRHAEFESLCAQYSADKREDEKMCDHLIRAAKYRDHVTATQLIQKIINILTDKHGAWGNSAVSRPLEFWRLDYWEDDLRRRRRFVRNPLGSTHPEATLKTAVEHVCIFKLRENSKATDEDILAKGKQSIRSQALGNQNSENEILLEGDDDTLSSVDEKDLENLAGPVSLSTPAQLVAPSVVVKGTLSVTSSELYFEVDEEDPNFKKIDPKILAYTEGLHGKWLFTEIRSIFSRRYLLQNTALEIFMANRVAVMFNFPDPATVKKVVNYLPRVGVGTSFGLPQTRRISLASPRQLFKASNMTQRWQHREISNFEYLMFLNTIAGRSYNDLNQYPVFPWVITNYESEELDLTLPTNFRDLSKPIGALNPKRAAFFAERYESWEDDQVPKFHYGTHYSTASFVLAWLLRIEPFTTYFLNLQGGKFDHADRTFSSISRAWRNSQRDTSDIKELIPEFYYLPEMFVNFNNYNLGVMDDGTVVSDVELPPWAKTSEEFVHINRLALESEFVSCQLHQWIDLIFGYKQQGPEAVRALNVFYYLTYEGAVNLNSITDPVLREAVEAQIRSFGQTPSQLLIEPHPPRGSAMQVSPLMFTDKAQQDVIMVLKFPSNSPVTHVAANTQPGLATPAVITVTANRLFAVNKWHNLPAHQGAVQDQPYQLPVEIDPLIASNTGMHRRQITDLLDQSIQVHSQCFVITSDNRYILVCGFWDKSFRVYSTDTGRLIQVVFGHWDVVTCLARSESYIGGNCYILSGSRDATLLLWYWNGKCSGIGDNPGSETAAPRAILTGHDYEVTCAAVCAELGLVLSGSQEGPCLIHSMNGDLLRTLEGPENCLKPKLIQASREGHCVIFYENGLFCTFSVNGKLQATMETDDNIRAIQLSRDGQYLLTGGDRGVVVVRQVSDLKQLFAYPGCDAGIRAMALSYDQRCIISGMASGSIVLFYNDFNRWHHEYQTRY
UniProt Q9NUN5: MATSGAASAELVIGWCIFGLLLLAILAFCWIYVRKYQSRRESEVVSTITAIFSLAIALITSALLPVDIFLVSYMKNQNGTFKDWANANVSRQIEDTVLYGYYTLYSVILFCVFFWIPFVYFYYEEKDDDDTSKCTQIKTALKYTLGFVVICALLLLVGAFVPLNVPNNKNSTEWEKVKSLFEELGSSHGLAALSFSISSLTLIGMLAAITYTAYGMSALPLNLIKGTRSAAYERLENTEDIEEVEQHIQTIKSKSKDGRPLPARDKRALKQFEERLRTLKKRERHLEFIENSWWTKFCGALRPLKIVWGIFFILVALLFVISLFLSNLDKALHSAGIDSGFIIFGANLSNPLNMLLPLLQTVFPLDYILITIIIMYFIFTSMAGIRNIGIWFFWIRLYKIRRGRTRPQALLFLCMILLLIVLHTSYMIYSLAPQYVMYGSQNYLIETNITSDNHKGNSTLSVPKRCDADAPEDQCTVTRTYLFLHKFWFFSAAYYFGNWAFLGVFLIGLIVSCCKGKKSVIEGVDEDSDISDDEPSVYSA
UniProt Q9H6V9: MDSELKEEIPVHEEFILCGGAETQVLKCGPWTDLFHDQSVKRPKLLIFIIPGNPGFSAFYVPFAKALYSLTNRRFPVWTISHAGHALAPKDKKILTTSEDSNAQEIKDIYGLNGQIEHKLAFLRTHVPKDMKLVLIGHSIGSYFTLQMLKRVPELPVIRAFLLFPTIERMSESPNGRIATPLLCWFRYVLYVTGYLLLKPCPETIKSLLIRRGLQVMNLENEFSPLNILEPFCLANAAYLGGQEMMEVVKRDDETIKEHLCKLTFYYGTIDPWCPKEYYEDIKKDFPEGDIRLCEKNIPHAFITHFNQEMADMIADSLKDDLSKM
UniProt Q9UHB6: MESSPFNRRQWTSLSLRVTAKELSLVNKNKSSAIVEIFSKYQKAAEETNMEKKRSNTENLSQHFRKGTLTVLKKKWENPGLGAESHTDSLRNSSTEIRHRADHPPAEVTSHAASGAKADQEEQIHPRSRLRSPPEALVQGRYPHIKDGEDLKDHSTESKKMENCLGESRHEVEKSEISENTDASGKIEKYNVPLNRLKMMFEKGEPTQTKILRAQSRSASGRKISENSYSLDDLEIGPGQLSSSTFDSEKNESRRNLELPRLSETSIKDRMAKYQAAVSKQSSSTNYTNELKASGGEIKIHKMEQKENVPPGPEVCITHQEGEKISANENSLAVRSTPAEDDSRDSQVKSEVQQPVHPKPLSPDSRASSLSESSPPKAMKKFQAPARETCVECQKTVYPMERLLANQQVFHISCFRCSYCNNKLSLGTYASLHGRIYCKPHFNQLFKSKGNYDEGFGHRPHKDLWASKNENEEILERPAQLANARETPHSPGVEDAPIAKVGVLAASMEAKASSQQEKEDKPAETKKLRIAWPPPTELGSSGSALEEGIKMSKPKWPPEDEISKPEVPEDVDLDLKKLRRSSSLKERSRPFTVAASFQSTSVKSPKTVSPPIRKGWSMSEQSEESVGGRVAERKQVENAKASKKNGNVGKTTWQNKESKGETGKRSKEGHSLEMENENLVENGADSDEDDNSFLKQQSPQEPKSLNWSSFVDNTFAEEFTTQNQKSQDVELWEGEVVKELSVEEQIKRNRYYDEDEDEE
UniProt Q8NC56: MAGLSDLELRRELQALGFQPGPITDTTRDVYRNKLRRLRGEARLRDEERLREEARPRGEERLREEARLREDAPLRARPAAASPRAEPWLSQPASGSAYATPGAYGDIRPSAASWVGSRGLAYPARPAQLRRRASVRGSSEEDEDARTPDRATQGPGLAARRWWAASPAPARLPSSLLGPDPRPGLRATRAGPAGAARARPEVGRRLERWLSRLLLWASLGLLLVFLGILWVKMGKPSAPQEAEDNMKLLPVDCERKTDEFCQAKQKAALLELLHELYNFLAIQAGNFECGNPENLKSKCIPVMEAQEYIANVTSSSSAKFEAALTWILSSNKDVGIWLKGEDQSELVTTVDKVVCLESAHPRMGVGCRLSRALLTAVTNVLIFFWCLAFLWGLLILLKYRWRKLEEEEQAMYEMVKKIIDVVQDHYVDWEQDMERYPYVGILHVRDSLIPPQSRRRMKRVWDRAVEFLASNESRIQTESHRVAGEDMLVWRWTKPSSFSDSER

Tests used:
Test in all cases: log2 fold change, soluble protein after heating vs DMSO (PISA); higher = thermal stabilisation; K562 cells, 10 uM, 30 min; active = over 0.2 and 3.5 SD of the protein, either way, in both replicates (recomputed)
[1] = compound: CC[C@@H]1C(=O)N(C)c2cnc(Nc3ccc(C(=O)NC4CCN(C)CC4)cc3OC)nc2N1C1CCCC1
In short: (§1)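 Aliquots of K562 cells (2×10^6 cells/mL) treated with 10 μM compound for 30 min were heated for 3 min over 48°C-58°C. After pooling and extraction in PBS with 0.5% NP-40 at 4°C, soluble protein from a 21,000xg, 90 min spin was quantified by TMTpro 16plex LC-MS/MS with channel sums equalised. Thermal stability is expressed against control samples, from duplicates, as a log2 fold change.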

volasertib = compound: CC[C@@H]1C(=O)N(C)c2cnc(Nc3ccc(C(=O)N[C@H]4CC[C@H](N5CCN(CC6CC6)CC5)CC4)cc3OC)nc2N1C(C)C [volasertib]
In short: as §1

epoxomicin = compound: CC[C@H](C)[C@@H](C(=O)N[C@@H]([C@@H](C)O)C(=O)N[C@@H](CC(C)C)C(=O)[C@]1(CO1)C)NC(=O)[C@H]([C@@H](C)CC)N(C)C(=O)C [epoxomicin]
In short: as §1

[2] = compound: CCn1c(C(=O)N(C2CC2)C2CC2)cc2c3c(ncn3C)c(Nc3cc(C)n(C)n3)nc21
In short: as §1

[3] = compound: CCn1cc(-c2ccnc3[nH]c(-c4cccc(CN(C)C)c4)cc23)c(-c2ccc(NC(=O)N(C)C)cc2)n1
In short: as §1

[4] = compound: CN(C)CC(=O)Nc1ccc2[nH]c(=O)c3ccccc3c2c1
In short: as §1

[5] = compound: CN1C2=C(C3=C1C(=O)N(N=C3)CC4=CC(=CC=C4)N)SC(=C2)S(=O)C
In short: as §1

[6] = compound: CN1CCC(CNc2ccc3ncc(-c4cccc(OC(F)(F)F)c4)n3n2)CC1
In short: as §1

saracatinib = compound: CN1CCN(CCOc2cc(OC3CCOCC3)c3c(Nc4c(Cl)ccc5c4OCO5)ncnc3c2)CC1 [saracatinib]
In short: as §1

sotrastaurin = compound: CN1CCN(c2nc(C3=C(c4c[nH]c5ccccc45)C(=O)NC3=O)c3ccccc3n2)CC1 [sotrastaurin]
In short: as §1

alvocidib = compound: CN1CC[C@H](c2c(O)cc(O)c3c(=O)cc(-c4ccccc4Cl)oc23)[C@H](O)C1 [alvocidib]
In short: as §1

Tubastatin A = compound: CN1CCc2c(c3ccccc3n2Cc2ccc(C(=O)NO)cc2)C1 [Tubastatin A]
In short: as §1

[7] = compound: CNC(=O)C1=CC=CC=C1NC2=NC(=NC=C2Cl)NC3=C(C=C(C=C3)N4CCOCC4)OC
In short: as §1

defactinib = compound: CNC(=O)c1ccc(Nc2ncc(C(F)(F)F)c(NCc3nccnc3N(C)S(C)(=O)=O)n2)cc1 [defactinib]
In short: as §1

rucaparib = compound: CNCc1ccc(-c2[nH]c3cc(F)cc4c3c2CCNC4=O)cc1 [rucaparib]
In short: as §1

[8] = compound: CNc1nc(-c2ccc3c(N)n[nH]c3c2)cc(N2C[C@@H](C(=O)NC3CCCCC3)CC[C@H]2C)n1
In short: as §1

encorafenib = compound: COC(=O)N[C@@H](C)CNc1nccc(-c2cn(C(C)C)nc2-c2cc(Cl)cc(NS(C)(=O)=O)c2F)n1 [encorafenib]
In short: as §1

[9] = compound: COC(=O)[C@H](CCSC)NC(=O)C1=C(C=C(C=C1)NC[C@H](CS)N)C2=CC=CC=C2
In short: as §1

[10] = compound: CC[C@H](C)N1C=C(C2=C(C=C(C=C21)C3=CN=C(C=C3)N4CCNCC4)C(=O)NCC5=C(C=C(NC5=O)C)C)C
In short: as §1

Measured: log2 fold change

LRG1 (UniProt P02750)
inactive: [1] 0.046 | volasertib -0.01 | epoxomicin 0.365 | [2] -0.229 | [3] -0.017 | [4] 0.038 | [5] 0.107 | [6] 0.243 | saracatinib -0.002 | sotrastaurin 0.058 | alvocidib 0.002 | Tubastatin A 0.318 | [7] 0.028 | defactinib -0.004 | rucaparib -0.178 | [8] -0.369 | encorafenib -0.023 | [9] -0.001

LARP4 isoform 4 (UniProt Q71RC2)
inactive: [1] -0.016 | volasertib -0.351 | [10] 0.117 | epoxomicin -0.107 | [3] 0.07 | [4] 0.009 | [5] 0.137 | [6] -0.252 | saracatinib -0.066 | sotrastaurin -0.051 | Tubastatin A 0.041 | [7] 0.047 | defactinib -0.036 | rucaparib 0.257 | [8] 0.059 | encorafenib 0.086 | [9] -0.014

L2HGDH (UniProt Q9H9P8)
inactive: [1] -0.088 | volasertib -0.014 | [10] 0.006 | epoxomicin -0.02 | [3] -0.067 | [4] -0.027 | [5] -0.11 | saracatinib -0.009 | sotrastaurin 0.091 | Tubastatin A -0.002 | [7] -0.017 | defactinib -0.011 | rucaparib -0.005 | [8] 0.012 | encorafenib -0.022 | [9] 0.049
active: [6] -0.325

LDLR (UniProt P01130)
inactive: [1] -0.135 | volasertib -0.176 | [10] -0.028 | epoxomicin 0.031 | [3] 0.058 | [4] -0.059 | [5] -0.004 | [6] 0.064 | saracatinib 0.113 | sotrastaurin 0.003 | Tubastatin A -0.002 | [7] 0.003 | defactinib -0.033 | rucaparib 0 | [8] -0.065 | encorafenib 0.01 | [9] 0.104

LPGAT1 (UniProt Q92604)
active: volasertib -0.401
inactive: [1] -0.206 | [10] 0.063 | epoxomicin 0.015 | [4] 0.051 | [5] -0.029 | saracatinib 0.111 | sotrastaurin -0.001 | Tubastatin A 0.019 | [7] 0.073 | defactinib -0.184 | rucaparib 0.036 | [8] -0.187 | encorafenib 0.026 | [9] 0.015

LPIN1 isoform 7 (UniProt Q14693)
inactive: [1] 0.06 | volasertib -0.002 | [10] 0.063 | epoxomicin 0.098 | [3] -0.045 | [4] 0.012 | [5] 0.008 | [6] -0.016 | saracatinib 0.003 | sotrastaurin -0.093 | Tubastatin A 0.041 | [7] -0.113 | defactinib -0.03 | rucaparib -0.054 | [8] -0.13 | encorafenib 0.009 | [9] 0.035

LMBRD2 (UniProt Q68DH5)
active: [6] -0.362
inactive: [1] -0.063 | volasertib -0.042 | [10] -0.012 | epoxomicin 0.081 | [3] -0.018 | [4] 0.002 | [5] -0.008 | saracatinib 0.04 | sotrastaurin 0.02 | Tubastatin A -0.032 | [7] -0.014 | defactinib -0.01 | rucaparib 0.003 | [8] -0.037 | encorafenib 0.021 | [9] -0.021

LEMD3 (UniProt Q9Y2U8)
inactive: [1] -0.096 | [10] -0.063 | epoxomicin 0.095 | [3] 0.003 | [4] 0.123 | [5] -0.016 | [6] -0.081 | saracatinib -0.014 | sotrastaurin 0.013 | Tubastatin A 0.062 | [7] 0.068 | defactinib -0.111 | rucaparib 0.027 | [8] 0.039 | encorafenib 0.026 | [9] -0.075
active: volasertib -0.324

LIMD1 (UniProt Q9UGP4)
active: volasertib -0.245
inactive: [1] -0.055 | [10] 0.042 | epoxomicin -0.018 | [3] 0.002 | [4] 0.015 | [5] -0.028 | [6] -0.043 | saracatinib 0.074 | sotrastaurin -0.011 | Tubastatin A -0.034 | [7] -0.029 | defactinib -0.03 | rucaparib -0.008 | [8] -0.01 | encorafenib 0.004 | [9] 0.004

Taken from the entries so far (2 entries):
LPIN1 isoform 7 (UniProt Q14693)
inactive: [1] 0.06 | volasertib -0.002 | [10] 0.063 | epoxomicin 0.098 | [3] -0.045 | [4] 0.012 | [5] 0.008 | [6] -0.016 | saracatinib 0.003 | sotrastaurin -0.093 | Tubastatin A 0.041 | [7] -0.113 | defactinib -0.03 | rucaparib -0.054 | [8] -0.13 | encorafenib 0.009 | [9] 0.035

LMBRD2 (UniProt Q68DH5)
active: [6] -0.362
inactive: [1] -0.063 | volasertib -0.042 | [10] -0.012 | epoxomicin 0.081 | [3] -0.018 | [4] 0.002 | [5] -0.008 | saracatinib 0.04 | sotrastaurin 0.02 | Tubastatin A -0.032 | [7] -0.014 | defactinib -0.01 | rucaparib 0.003 | [8] -0.037 | encorafenib 0.021 | [9] -0.021

Continued.

LRBA (UniProt P50851)
active: volasertib -0.221
inactive: [1] -0.05 | [10] 0.034 | epoxomicin 0.017 | [3] -0.074 | [4] 0.008 | [5] -0.057 | [6] -0.139 | saracatinib 0.039 | sotrastaurin -0.031 | Tubastatin A 0.014 | [7] -0.012 | defactinib -0.015 | rucaparib -0.01 | [8] -0.023 | encorafenib 0.018 | [9] -0.002

LMBRD1 (UniProt Q9NUN5)
inactive: [1] -0.073 | volasertib 0.032 | [10] 0.015 | epoxomicin 0.065 | [3] -0.015 | [4] 0.015 | [5] 0.133 | [6] -0.351 | saracatinib 0.154 | sotrastaurin 0.023 | Tubastatin A 0.098 | [7] 0.052 | defactinib 0.047 | rucaparib -0.023 | [8] -0.173 | encorafenib 0.053 | [9] -0.057

LMF2 (UniProt Q9BU23)
active: volasertib -0.332
inactive: [1] -0.109 | [10] -0.027 | epoxomicin 0 | [3] 0.12 | [4] -0.017 | [5] -0.007 | [6] -0.035 | saracatinib 0.006 | sotrastaurin -0.043 | Tubastatin A 0.048 | [7] 0.007 | defactinib 0 | rucaparib 0.082 | [8] -0.02 | encorafenib 0.052 | [9] -0.04

LRBA, A0A494BZW2
inactive: [1] -0.04 | volasertib -0.025 | [10] 0.007 | epoxomicin -0.03 | [3] -0.039 | [5] 0.043 | [6] -0.115 | saracatinib -0.005 | sotrastaurin 0.065 | Tubastatin A -0.42 | [7] -0.368 | rucaparib -0.055 | [8] -0.008 | encorafenib 0.041

LDAH isoform 2 (UniProt Q9H6V9)
active: volasertib -0.374 | [6] -0.688
inactive: [1] -0.062 | [10] 0.007 | epoxomicin -0.052 | [3] -0.148 | [4] 0.049 | [5] -0.137 | saracatinib 0.092 | sotrastaurin 0.035 | Tubastatin A -0.03 | [7] -0.001 | defactinib -0.09 | rucaparib -0.004 | [8] -0.043 | encorafenib 0.04 | [9] -0.063

LIMA1 isoform 4 (UniProt Q9UHB6)
inactive: [1] -0.006 | volasertib -0.115 | [10] -0.021 | epoxomicin 0.003 | [3] 0 | [4] -0.053 | [5] -0.006 | [6] 0.086 | saracatinib 0.046 | sotrastaurin -0.109 | Tubastatin A 0.014 | [7] -0.033 | defactinib -0.015 | rucaparib 0.074 | [8] -0.089 | encorafenib 0.017 | [9] 0.01

LAMP2 (UniProt P13473)
inactive: [1] 0.018 | volasertib 0.069 | [10] -0.023 | epoxomicin 0.083 | [3] 0.019 | [4] 0.059 | [5] -0.016 | [6] -0.032 | saracatinib 0.078 | sotrastaurin 0.123 | Tubastatin A -0.061 | [7] 0.105 | defactinib -0.047 | rucaparib -0.055 | [8] -0.088 | encorafenib -0.026 | [9] 0.062

LEMD2 (UniProt Q8NC56)
inactive: [1] -0.212 | [10] 0.034 | epoxomicin -0.002 | [3] 0.028 | [4] 0.091 | [5] -0.006 | saracatinib -0.048 | sotrastaurin 0.004 | Tubastatin A 0.014 | [7] -0.058 | defactinib -0.126 | rucaparib 0.11 | [8] 0.041 | encorafenib 0.023 | [9] 0.013
active: volasertib -0.422 | [6] -0.338
